According to paper PMC8036666, “Biological and Physico-Chemical Characteristics of Arginine-Rich Peptide Gemini Surfactants with Lysine and Cystine Spacers” (International Journal of Molecular Sciences, 2021):

Tests used:
[1] = test system: Acinetobacter baumannii ATCC BAA 1605
Procedure: (§1) The Acinetobacter baumannii ATCC BAA-1605, Enterococcus faecium ATCC 700221, Escherichia coli ML-35 ATCC 43827, Klebsiella aerogenes ATCC 13048, Klebsiella pneumoniae ATCC 700603, Pseudomonas aeruginosa ATCC 9027, Staphylococcus aureus ATCC 25923, Staphylococcus aureus ATCC 33591, Candida albicans ATCC 10231, Candida glabrata ATCC 15126, strains were acquired from the American Type Culture Collection (ATCC). All the strains were stored at −80 °C in Roti-Store cryo vials and before the tests were transferred into fresh Mueller–Hinton broth (MHB, Biocorp, Warsaw, Poland) for bacteria or RPMI-1640 (Sigma-Aldrich, Steinheim, Germany) for fungi and incubated for 24 h at 37 °C. Then, the cultures were seeded on the Mueller–Hinton agar (BioMaxima, Lublin, Poland) or Sabouraud dextrose agar (SDA, BioMaxima, Lublin, Poland) plates, respectively, and incubated as just mentioned. These agar cultures were used for further microbiological assays. Cell densities for all assays were adjusted spectrophotometrically (Multiskan GO Microplate Spectrophotometer, Thermo Fisher Scientific, Vantaa, Finland) at 600 and 530 nm for bacteria and fungi, respectively.
(§2) The MICs were determined by the broth microdilution method according to the Clinical and Laboratory Standard Institute guidelines. […] The experiments were conducted on 96-well microtiter polystyrene plates (Kartell, Noviglio, Italy). The growth was assessed visually after incubation, and the MIC was assumed as the lowest peptide concentration at which a noticeable growth of microorganisms was inhibited. All experiments were conducted in triplicate.

[2] = test system: Enterococcus faecium ATCC 700221
Procedure: as §1, §2

[3] = test system: Klebsiella aerogenes ATCC 13048
Procedure: as §1, §2

[4] = test system: Klebsiella pneumoniae ATCC 700603
Procedure: as §1, §2

[5] = test system: Pseudomonas aeruginosa ATCC 9027
Procedure: as §1, §2

[6] = test system: Staphylococcus aureus ATCC 25923
Procedure: as §1, §2

[7] = test system: Staphylococcus aureus ATCC 33591
Procedure: as §1, with “[…],” for “Poland) for bacteria or RPMI-1640 (Sigma-Aldrich,”, “Cell densities for all assays were adjusted spectrophotometrically (Multiskan GO Microplate Spectrophotometer, Thermo Fisher Scientific, Vantaa, Finland) at 600 and 530 nm for bacteria and fungi, respectively.” left out
as §2

[8] = test system: C. albicans ATCC 10231
Procedure: as §1
(§3) The MICs were determined by the broth microdilution method according to the Clinical and Laboratory Standard Institute guidelines. For this purpose, initial inoculums of bacteria (5 × 10^5 CFU/mL) in MHB and yeasts (2 × 10^3 CFU/mL) in RPMI-1640 with 2% D-glucose were exposed to the ranging concentration of lipopeptides (0.5–256 μg/mL) and incubated at 37 °C for 18 h and 24 h, respectively. The experiments were conducted on 96-well microtiter polystyrene plates (Kartell, Noviglio, Italy). The growth was assessed visually after incubation, and the MIC was assumed as the lowest peptide concentration at which a noticeable growth of microorganisms was inhibited. All experiments were conducted in triplicate.

[9] = test system: C. glabrata ATCC 15126
Procedure: as §1, §3

Structure (SMILES)	SI HaCaT (IC50HaCaT/MIC) [1]	SI hRBCs (HC50/MIC) [1]	SI HaCaT (IC50HaCaT/MIC) [2]	SI hRBCs (HC50/MIC) [2]	SI HaCaT (IC50HaCaT/MIC) [3]	SI hRBCs (HC50/MIC) [3]	SI HaCaT (IC50HaCaT/MIC) [4]	SI hRBCs (HC50/MIC) [4]	SI HaCaT (IC50HaCaT/MIC) [5]	SI hRBCs (HC50/MIC) [5]	SI HaCaT (IC50HaCaT/MIC) [6]	SI hRBCs (HC50/MIC) [6]	SI HaCaT (IC50HaCaT/MIC) [7]	SI hRBCs (HC50/MIC) [7]	SI HaCaT (IC50HaCaT/MIC) [8]	SI hRBCs (HC50/MIC) [8]	SI HaCaT (IC50HaCaT/MIC) [9]	SI hRBCs (HC50/MIC) [9]
CCCCCCC(CCCC)C(=O)N[C@@H](CCCNC(=N)N)C(=O)N[C@@H](CCCNC(=N)N)C(=O)NCCCC[C@H](NC(=O)[C@H](CCCNC(=N)N)NC(=O)[C@H](CCCNC(=N)N)NC(=O)C(CCCC)CCCCCC)C(N)=O (stereo partly drawn) [Compound B7]	2.46	> 8	78.78	> 256	4.92	> 16	2.46	> 8	19.70	> 64	78.78	> 256	157.56	> 512	9.85	> 32	4.92	> 16
CCCCCCCC(=O)N[C@@H](Cc1ccccc1)C(=O)N[C@@H](CCCNC(=N)N)C(=O)N[C@@H](CCCNC(=N)N)C(=O)N[C@@H](CSSC[C@H](NC(=O)[C@H](CCCNC(=N)N)NC(=O)[C@H](CCCNC(=N)N)NC(=O)[C@H](Cc1ccccc1)NC(=O)CCCCCCC)C(N)=O)C(N)=O [Compound C5] (I: Octanoyl-FRRC-NH2 / II: Octanoyl-FRRC-NH2; disulfide I:4-II:4)	4.58	3.66	73.32	58.53	1.15	0.91	4.58	3.66	18.33	14.63	73.32	58.53	73.32	58.53	18.33	14.63	18.33	14.63
CCCCCCC(CCCC)C(=O)N[C@@H](CCCNC(=N)N)C(=O)N[C@@H](CCCNC(=N)N)C(=O)N[C@@H](CSSC[C@H](NC(=O)[C@H](CCCNC(=N)N)NC(=O)[C@H](CCCNC(=N)N)NC(=O)C(CCCC)CCCCCC)C(N)=O)C(N)=O (stereo partly drawn) [Compound C7]	5.12	> 8	81.99	> 128	10.25	> 16	5.12	> 8	41.00	> 64	81.99	> 128	81.99	> 128	10.25	> 16	10.25	> 16

Where a SMILES comes first, the peptide text is derived from it. Bridges are numbered along the chain shown (N, C = ends). Roman numbers before positions name the chains, in order. The star is where a group is joined. Octanoyl = CCCCCCCC(=O)*
